The results in this text go back to paper doi:10.1101/2021.10.17.464745.

Protein sequences, listed by entry. Tags and fused reporters are not part of them.
UniProt P01108: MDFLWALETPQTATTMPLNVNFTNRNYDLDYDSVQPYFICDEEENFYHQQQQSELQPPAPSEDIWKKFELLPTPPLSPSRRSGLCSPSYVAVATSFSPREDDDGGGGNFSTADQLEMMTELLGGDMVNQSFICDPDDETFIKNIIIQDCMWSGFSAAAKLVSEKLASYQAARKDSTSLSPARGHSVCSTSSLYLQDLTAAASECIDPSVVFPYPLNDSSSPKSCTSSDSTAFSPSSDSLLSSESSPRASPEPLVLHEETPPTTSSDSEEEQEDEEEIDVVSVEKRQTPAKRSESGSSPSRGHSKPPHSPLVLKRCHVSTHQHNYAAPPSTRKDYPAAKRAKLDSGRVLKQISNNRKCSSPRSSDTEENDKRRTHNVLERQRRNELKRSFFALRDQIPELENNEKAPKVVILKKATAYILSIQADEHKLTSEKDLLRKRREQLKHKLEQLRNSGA

This assay deals with T1, phosphoglycerate dehydrogenase (Phgdh), mouse liver (mouse (endogenous in liver)) (UniProt Q61753).
T1 sequence: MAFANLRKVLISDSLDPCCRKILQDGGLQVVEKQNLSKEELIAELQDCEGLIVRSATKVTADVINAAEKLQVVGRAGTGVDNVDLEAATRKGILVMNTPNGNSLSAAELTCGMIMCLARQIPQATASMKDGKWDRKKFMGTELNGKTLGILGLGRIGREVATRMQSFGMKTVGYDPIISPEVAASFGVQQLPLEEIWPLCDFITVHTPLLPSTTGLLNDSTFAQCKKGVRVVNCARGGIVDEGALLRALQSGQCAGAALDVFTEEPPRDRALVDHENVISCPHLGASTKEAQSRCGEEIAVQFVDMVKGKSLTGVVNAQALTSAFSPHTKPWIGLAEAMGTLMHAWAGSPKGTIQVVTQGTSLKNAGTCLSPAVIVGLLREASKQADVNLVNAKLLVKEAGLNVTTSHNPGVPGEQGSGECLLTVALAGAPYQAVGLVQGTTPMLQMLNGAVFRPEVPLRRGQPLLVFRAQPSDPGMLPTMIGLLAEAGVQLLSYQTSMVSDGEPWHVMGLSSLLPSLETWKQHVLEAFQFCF
Briefly: affinity purification with mass spectrometry.

These are yes or no findings as the source states them, for the method shown. Binding seen in cells or lysates may run through a third protein. A yes stands for co-enrichment or nearness to the bait. Other partners may have been found.

For “cMyc, mouse liver (from UniProt P01108 1-454)”, the binding entry is “binds”.
